For some assays here: Construct, isoform or probe ends are uncertain for at least one entry.
Legend:
[1] = target: WECO (RecA 193-212 F203W peptide) (Escherichia coli) (UniProt P0A7G8); assay: binding assay; details: CD, beta structure, 278 nm band reduced, pH 6.0; synthetic protein; protein details: synthetic peptide, HPLC purified; single-stranded DNA
[2] = target: FECO (RecA residues 193-212 peptide) (Escherichia coli) (UniProt P0A7G8); assay: filter binding; details: 10 mM MgCl2, pH 8.3, room temp; less tight without Mg; no distinct dsDNA unstacking; synthetic protein; protein details: synthetic peptide, HPLC purified; label: 5' 32P on BS-S1
[3] = target: WECO (RecA 193-212 F203W peptide) (Escherichia coli) (UniProt P0A7G8); assay: filter binding; details: 10 mM MgCl2, pH 8.3, synthetic protein, protein details: synthetic peptide, HPLC purified
RecA = RecA (UniProt P0A7G6); assay: footprint; details: permanganate hypermodification; 10 mM MgCl2, ATPgammaS, ADP, 37 C; also forms joint molecules (Example 5); purified recombinant protein; label: 5' 32P; single-stranded DNA

Does “CTGTCTACTCTCGAGGTTAACCCGTGCGAATTCTACGATTGGTGCGGCCGGTATATC [57-mer ssDNA]” bind [1]?
Result: binds

What does the source list for “GGCCGCTCTAGAACTAGTGGATCCCCCGGGCTGCAGGAATTCGATATCAAGCT / AGCTTGATATCGAATTCCTGCAGCCCGGGGATCCACTAGTTCTAGAGCGGCC [BS-S1/BS-S2 duplex]”?
binding result [2]: binds; binding result ([3]; less tight without Mg, label: 5' 32P on BS-S1): binds

Does “GGCCGCTCTAGAACTAGTGGATCCCCCGGGCTGCAGGAATTCGATATCAAGCT [BS-S1 ssDNA]” bind ([3]; higher DNA affinity than FECO, unstacks ssDNA, forms joint molecules (Example 5), label: 5' 32P, single-stranded DNA)?
Result: binds

And the “activity on this sequence” value (RecA)?
Its value is “active”.

— patent US5731411
